{"sequences": {"note": "Chains of the proteins cited; added tags and fusions are not shown.", "UniProt P09471, whole entry, looked up": "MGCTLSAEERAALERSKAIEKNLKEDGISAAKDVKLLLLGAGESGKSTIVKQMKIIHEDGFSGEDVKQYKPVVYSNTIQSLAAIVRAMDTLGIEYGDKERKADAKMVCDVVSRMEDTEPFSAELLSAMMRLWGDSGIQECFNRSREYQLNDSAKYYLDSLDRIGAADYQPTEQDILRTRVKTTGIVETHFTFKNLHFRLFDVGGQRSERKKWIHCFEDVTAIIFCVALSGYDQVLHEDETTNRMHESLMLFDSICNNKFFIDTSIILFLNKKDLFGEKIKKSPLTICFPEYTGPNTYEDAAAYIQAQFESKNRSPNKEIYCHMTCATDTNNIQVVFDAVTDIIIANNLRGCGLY"}, "source": "PubChem BioAssay AID1439", "about": "(NMMLSC, 2008)", "note": "About 770 (0.35%) of roughly 220,000 compounds were called active. The shares of active, inactive and inconclusive entries below differ from those in the screen. No stated cut-off is given here; in the data, active means binding response below about 49% or above about 150%; inconclusive means no clear call, values can overlap the other calls; inactive means in between.", "data": [{"molecular_target": "Guanine nucleotide-binding protein G(o) subunit alpha (Homo sapiens) (UniProt P09471)", "assay": "RGS7-Galphao binding modulators, primary screen, biochemical, multiplexed bead flow cytometry (AID 1439);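 further: fluorescent Galphao held in activated GDP-AlF4 state binding bead-coupled RGS7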", "details": "at 10 µM, actives lie on both sides", "values": [{"smiles": "O=c1[nH]c(=O)c2ncc(-c3ccc(Cl)cc3)nc2[nH]1", "binding response (% of control)": "inconclusive: 142%"}, {"smiles": "Cc1ccc(OCCC(=O)OCC(=O)Nc2ccc(Cl)cn2)cc1", "binding response (% of control)": "inactive: 94.7%"}, {"smiles": "Cc1ccc(S(=O)(=O)N/N=C/c2ccc(O)c(O)c2)cc1[N+](=O)[O-]", "binding response (% of control)": "inconclusive: 119%"}, {"smiles": "CC(NC(=O)C(=O)N/N=C\\c1cccc([N+](=O)[O-])c1)c1ccccc1", "note": "(centres undefined)", "binding response (% of control)": "inactive: 103%"}, {"smiles": "CC(C)Cn1c(=O)c2c(nc3n2CCS3)n(C)c1=O", "binding response (% of control)": "inconclusive: 105%"}, {"smiles": "O=C(CSc1ncn[nH]1)Nc1cc(S(=O)(=O)N2CCCC2)ccc1Cl", "binding response (% of control)": "inconclusive: 96.9%"}, {"smiles": "COc1ccc(C2C(C(=O)N3CCN(c4ccccn4)CC3)CCC(=O)N2c2ccc(OC)cc2)cc1", "note": "(centres undefined)", "binding response (% of control)": "inconclusive: 110%"}, {"smiles": "COc1cccc(-c2nnc(NC(C)=O)o2)c1", "binding response (% of control)": "inconclusive: 154%"}, {"smiles": "CC(=O)Oc1ccc2c(c1)Oc1cc(OC(C)=O)ccc1C21OC(=O)c2ccccc21", "binding response (% of control)": "active: 628% [activator]"}, {"smiles": "CC(=O)c1ccc(-n2c(=O)[nH]c(=O)c3c(N)c(C(=O)c4ccc(Cl)cc4)sc32)cc1", "binding response (% of control)": "inconclusive: 98.3%"}, {"smiles": "COc1ccc(C(=O)Nc2cccnc2Sc2ccc(Cl)cc2)cc1", "binding response (% of control)": "inconclusive: 100%"}, {"smiles": "COc1cc(C(C)=O)ccc1COc1ccc(C(=O)O)cc1OC", "binding response (% of control)": "inconclusive: 103%"}, {"smiles": "Cc1c(/C=C/C(=O)c2ccc(C(C)C)cc2)cnn1C", "binding response (% of control)": "inactive: 110%"}, {"smiles": "Cc1ccc(S(=O)(=O)N2CCCCC2)cc1NC(=O)COC(=O)c1c(F)cccc1F", "binding response (% of control)": "inconclusive: 94.4%"}, {"smiles": "CCN(CCS(=O)(=O)c1ccc(Cl)cc1)C(=O)Nc1ccc(Cl)cc1", "binding response (% of control)": "inconclusive: -85.6%"}, {"smiles": "CN(C)c1cc(-c2ccc([N+](=O)[O-])cc2)oc(=O)c1Cl", "binding response (% of control)": "inconclusive: 218%"}, {"smiles": "COc1ccc(-c2c(-c3ccc(O)cc3O)n[nH]c2C(F)(F)F)cc1", "binding response (% of control)": "inconclusive: 49.8%"}, {"smiles": "O=C(CCc1nc2ccccc2s1)OCC(=O)c1ccc[nH]1", "binding response (% of control)": "inactive: 100%"}, {"smiles": "c1cncc(-c2nc(NCc3ccc4c(c3)OCO4)c3ccccc3n2)c1", "binding response (% of control)": "inconclusive: 93.5%"}, {"smiles": "O=[N+]([O-])c1ccc(C(O)C(CO)NC(=S)Nc2ccccc2)cc1", "note": "(centres undefined)", "binding response (% of control)": "inconclusive: 153%"}, {"smiles": "O=C(NCc1cccnc1)c1nc(-c2cccs2)no1", "binding response (% of control)": "inconclusive: 106%"}, {"smiles": "OCc1nc2nc(Cl)c(Cl)nc2[nH]1", "binding response (% of control)": "inconclusive: 95%"}, {"smiles": "Cc1cccc(NC(=O)c2cc(-c3ccccn3)nc3ccccc23)c1C", "binding response (% of control)": "inconclusive: 138%"}, {"smiles": "CC(C)OCCCNC(=S)Nc1ccc(S(N)(=O)=O)cc1", "binding response (% of control)": "inactive: 122%"}, {"smiles": "O=S(=O)(NCc1csc(-c2cccs2)n1)c1cccs1", "binding response (% of control)": "inconclusive: 59.2%"}, {"smiles": "COC(=O)C(Cc1csc2ccc(Cl)cc12)NC(=O)c1ccc(Cl)cc1", "note": "(centres undefined)", "binding response (% of control)": "inconclusive: 123%"}, {"smiles": "Cc1ccc(NC(=O)CNCCCN2CCOCC2)cc1S(=O)(=O)N1CCCCC1", "binding response (% of control)": "inconclusive: 133%"}, {"smiles": "CCOc1cc(/C=C2\\NC(=O)NC2=O)cc([N+](=O)[O-])c1O", "binding response (% of control)": "inconclusive: 110%"}, {"smiles": "O=C(O)c1ccc2cccc(O)c2n1", "binding response (% of control)": "inconclusive: 107%"}, {"smiles": "C=CCN1C(=O)/C(=C/C(=O)OC)S/C1=N\\NC(=O)c1ccccc1", "binding response (% of control)": "inconclusive: 103%"}, {"smiles": "CCOC(=O)Nc1ccc2c(c1)N(C(=O)N(CC)CC)c1ccccc1CC2", "binding response (% of control)": "inactive: 98.7%"}, {"smiles": "NC(=NC(=O)c1ccc(OC(F)(F)F)cc1)c1ccc(C(F)(F)F)cn1", "binding response (% of control)": "inconclusive: 67%"}, {"smiles": "CCSc1nnc(NC(=O)[C@H](C)N2C(=O)C3CC=CCC3C2=O)s1", "note": "(some centres undefined)", "binding response (% of control)": "inconclusive: 91.5%"}, {"smiles": "O=C(Nc1ccc(S(=O)(=O)N2CCCC2)cc1)c1cc(=O)c2ccccc2o1", "binding response (% of control)": "inconclusive: 99.1%"}, {"smiles": "Nc1nc[nH]c(=O)c1N=Cc1ccccc1", "binding response (% of control)": "inconclusive: 98.3%"}, {"smiles": "COc1ccc(CNCc2cccc(Oc3ccccc3)c2)cc1", "binding response (% of control)": "inactive: 103%"}, {"smiles": "Cc1csc(NC(=O)c2cncc(Br)c2)n1", "binding response (% of control)": "inactive: 109%"}, {"smiles": "CCc1nnc(NC(=O)c2ccc(OCc3c(C)noc3C)c(OC)c2)s1", "binding response (% of control)": "inconclusive: 108%"}, {"smiles": "C(=N\\NCc1ccccc1)/c1ccc2ncccc2c1", "binding response (% of control)": "inconclusive: -42%"}, {"smiles": "COc1ccc(CN2CCN(c3ccccn3)CC2)c(OC)c1C", "binding response (% of control)": "inconclusive: 109%"}, {"smiles": "Cc1ccc(F)cc1NC(=O)N1CCCN(c2ccc(C(F)(F)F)cn2)CC1", "binding response (% of control)": "inconclusive: 99.2%"}, {"smiles": "COc1ccc(/C=N/NC(=O)c2ccc3nc[nH]c3c2)cc1OC", "binding response (% of control)": "inconclusive: 251%"}, {"smiles": "CCNS(=O)(=O)c1ccc(NC(=O)Cn2cc([N+](=O)[O-])cn2)cc1", "binding response (% of control)": "inconclusive: 130%"}, {"smiles": "CC(=O)c1cccc(CN2CCN(CCC(C)C)C(CCO)C2)c1", "note": "(centres undefined)", "binding response (% of control)": "inconclusive: 58.8%"}, {"smiles": "O=C(Nc1ccccc1N1CCCCC1)c1cccs1", "binding response (% of control)": "inactive: 108%"}, {"smiles": "COc1cc(CCC(=O)OCC(=O)Nc2ccc(C(N)=O)cc2)cc(OC)c1OC", "binding response (% of control)": "inconclusive: 85.4%"}, {"smiles": "COc1cccc(CN(C)C(=O)c2cccnc2SC)c1OC", "binding response (% of control)": "inconclusive: 106%"}, {"smiles": "COc1ccc(/C=N/NC(=O)CN2CCCCCCC2)c(C)c1C", "binding response (% of control)": "inconclusive: 102%"}, {"smiles": "CN(C)S(=O)(=O)c1cccc(NC(=O)COC(=O)CNC(=O)c2cccc([N+](=O)[O-])c2)c1", "binding response (% of control)": "inconclusive: 108%"}, {"smiles": "C=CCn1cnc2c(nnn2-c2cc(C)cc(C)c2)c1=O", "binding response (% of control)": "inconclusive: 92.3%"}, {"smiles": "CC1(C)CC(=O)C2=C(C1)NC1=C(C(=O)c3ccccc31)C2c1cc([N+](=O)[O-])ccc1O", "note": "(centres undefined)", "binding response (% of control)": "inconclusive: 154%"}, {"smiles": "Brc1ccc(-c2cn3ccccc3n2)cc1", "binding response (% of control)": "inconclusive: -90.6%"}, {"smiles": "Cc1cc(NC(=O)C(C)C)n(-c2nc3ccccc3s2)n1", "binding response (% of control)": "inconclusive: 88.3%"}, {"smiles": "COCCNC(=O)c1c(CSc2ccccc2)noc1C(=O)NCc1ccccc1", "binding response (% of control)": "inconclusive: 103%"}, {"smiles": "CCOc1ccccc1CNCCOC", "binding response (% of control)": "inconclusive: 113%"}, {"smiles": "CN(C)c1ncc([N+](=O)[O-])cc1C(F)(F)F", "binding response (% of control)": "inconclusive: 88.7%"}, {"smiles": "CCOc1nc(-c2ccccc2Cl)ccc1C#N", "binding response (% of control)": "inactive: 100%"}, {"smiles": "N#CC1CC(c2ccccc2)Nc2cc(Cl)ccc2N1", "note": "(centres undefined)", "binding response (% of control)": "inconclusive: 185%"}, {"smiles": "Cc1ccc(NC(=O)COC(=O)Cc2ccsc2)cc1S(=O)(=O)N(C)C", "binding response (% of control)": "inconclusive: 91.3%"}]}]}
